Test results as given in publication PMC7641127, “MCL1 binds and negatively regulates the transcriptional function of tumor suppressor p73” (Cell Death & Disease, 2020).
Construct, isoform or probe ends are uncertain for at least one entry. For some assays here: Negatives hold for the conditions tested. For some assays here: The comparison behind a weaker result is the experiment's own reference, which may not be listed here. For some assays here: At least one verdict rests on a figure or table, not on a statement of the authors. For some assays here: Tags and fusion partners may be left off the protein sequences shown.

Sequences of proteins named here, by UniProt entry; tags and fusion partners are left off. Residues count along the entry.
UniProt Q07820, 171-327: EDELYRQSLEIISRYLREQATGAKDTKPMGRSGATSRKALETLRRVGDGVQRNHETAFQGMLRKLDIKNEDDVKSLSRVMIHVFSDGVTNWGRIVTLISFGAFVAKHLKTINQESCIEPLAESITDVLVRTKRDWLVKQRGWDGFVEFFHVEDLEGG

Key:
p73DBD [1] = biological target: T1, p73DBD (UniProt O15350); assay: fluorescence polarization; settings: lower affinity than p73DBD-TD; FPA: 1x PBS pH 7.4, 30 min shaking, DNA annealed in 5 mM Tris, 5 mM KCl, 0.01% Triton, 0.2 mM DTT pH 8.6; recombinant protein; residues 112-311; label: 5'-FITC on forward strand
T1 sequence (looked up): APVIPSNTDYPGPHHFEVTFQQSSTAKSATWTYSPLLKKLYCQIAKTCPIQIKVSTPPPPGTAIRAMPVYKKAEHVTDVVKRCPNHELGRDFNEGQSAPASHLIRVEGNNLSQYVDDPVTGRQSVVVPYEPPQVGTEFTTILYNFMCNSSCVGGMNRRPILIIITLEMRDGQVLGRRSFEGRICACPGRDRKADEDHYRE

p73DBD-TD [2] = biological target: T2, p73DBD-TD (UniProt O15350); assay: fluorescence polarization; settings: higher affinity than p73DBD; FPA: 1x PBS pH 7.4, 30 min shaking, DNA annealed in 5 mM Tris, 5 mM KCl, 0.01% Triton, 0.2 mM DTT pH 8.6; recombinant protein; residues 112-398; label: 5'-FITC on forward strand
T2 sequence (looked up): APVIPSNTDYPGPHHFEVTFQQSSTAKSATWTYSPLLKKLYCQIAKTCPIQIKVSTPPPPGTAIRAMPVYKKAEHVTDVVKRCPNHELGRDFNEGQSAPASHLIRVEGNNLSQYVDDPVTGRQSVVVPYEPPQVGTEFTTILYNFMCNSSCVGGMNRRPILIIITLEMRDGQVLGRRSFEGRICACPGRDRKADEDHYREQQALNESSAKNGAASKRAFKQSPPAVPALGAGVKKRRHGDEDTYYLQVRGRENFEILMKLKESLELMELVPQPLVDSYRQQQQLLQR

p73DBD [3] = biological target: T1, p73DBD; assay: EMSA; settings: 10 uM p73DBD, 1 uM DNA, MCL1 10-200 uM has no effect on binding; EMSA: on ice 15+15 min, 1 uM FITC-DNA, proteins in 1x PBS pH 6.8, native TGX gel in 1x Tris/glycine; recombinant protein; residues 112-311; label: 5'-FITC on forward strand
p73DBD-TD [4] = biological target: T2, p73DBD-TD; assay: EMSA; settings: 10 uM p73DBD-TD, 1 uM DNA, EMSA: on ice 15+15 min, 1 uM FITC-DNA, proteins in 1x PBS pH 6.8, native TGX gel in 1x Tris/glycine, recombinant protein, residues 112-398, label: 5'-FITC on forward strand
MCL1 = MCL1 (UniProt Q07820); assay: EMSA; settings: 200 uM MCL1 alone, no p73, free DNA migration unchanged; EMSA: on ice 15+15 min, 1 uM FITC-DNA, proteins in 1x PBS pH 6.8, native TGX gel in 1x Tris/glycine; recombinant protein; label: 5'-FITC on forward strand

Row | Sequence | binding result (p73DBD [1]) | binding result (p73DBD-TD [2]) | binding result (p73DBD [3]) | binding result (p73DBD-TD [4]; no MCL1) | binding signal (% reduction of DNA binding) (p73DBD-TD [4]; MCL1 titrated 10-200 uM) | binding result (MCL1)
1 | GAACATGTCTAGGCATGCTG (double strand) [F-GADD45 response element] | binds more weakly | binds | binds | binds | 27 | no binding
2 | GAGCGTGTCCGGGCAGGTCG (double strand) [F-NOXA response element] | binds more weakly | binds | – | – | – | –
